Data: paper PMC10630320

By UniProt entry, the sequences of proteins in these tests, tags left out. Where a name states a change or a piece, a line headed by the entry shows the natural chain unless it says otherwise.
UniProt Q96ES7: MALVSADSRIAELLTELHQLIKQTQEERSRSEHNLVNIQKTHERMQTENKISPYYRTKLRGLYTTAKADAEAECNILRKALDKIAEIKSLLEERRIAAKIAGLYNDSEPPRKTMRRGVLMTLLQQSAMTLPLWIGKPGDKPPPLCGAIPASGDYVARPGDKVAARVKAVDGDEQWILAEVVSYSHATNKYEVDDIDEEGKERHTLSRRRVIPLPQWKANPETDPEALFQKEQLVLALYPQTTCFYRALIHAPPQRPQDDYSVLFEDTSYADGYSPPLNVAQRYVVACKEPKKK
UniProt Q92831: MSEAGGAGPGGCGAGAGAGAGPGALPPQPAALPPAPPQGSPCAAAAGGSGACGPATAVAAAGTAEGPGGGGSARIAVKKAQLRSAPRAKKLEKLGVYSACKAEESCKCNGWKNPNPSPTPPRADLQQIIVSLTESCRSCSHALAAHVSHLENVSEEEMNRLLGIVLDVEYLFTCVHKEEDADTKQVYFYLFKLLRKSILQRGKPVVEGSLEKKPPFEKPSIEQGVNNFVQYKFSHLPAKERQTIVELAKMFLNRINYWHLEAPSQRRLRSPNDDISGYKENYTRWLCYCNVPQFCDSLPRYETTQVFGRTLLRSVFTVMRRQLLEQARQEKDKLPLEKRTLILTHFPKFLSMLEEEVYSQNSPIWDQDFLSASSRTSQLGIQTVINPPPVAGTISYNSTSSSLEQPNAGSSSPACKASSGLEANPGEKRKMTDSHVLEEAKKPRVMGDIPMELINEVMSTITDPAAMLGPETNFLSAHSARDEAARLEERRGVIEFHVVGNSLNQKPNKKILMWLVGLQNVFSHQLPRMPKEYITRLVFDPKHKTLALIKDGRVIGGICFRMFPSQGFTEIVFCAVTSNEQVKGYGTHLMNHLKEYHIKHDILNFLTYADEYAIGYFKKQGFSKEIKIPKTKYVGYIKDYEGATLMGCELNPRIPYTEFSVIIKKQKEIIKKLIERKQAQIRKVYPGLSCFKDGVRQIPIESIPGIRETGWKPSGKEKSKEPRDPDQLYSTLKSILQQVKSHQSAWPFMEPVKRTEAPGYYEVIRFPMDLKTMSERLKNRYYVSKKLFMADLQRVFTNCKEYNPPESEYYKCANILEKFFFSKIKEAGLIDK
UniProt Q92830: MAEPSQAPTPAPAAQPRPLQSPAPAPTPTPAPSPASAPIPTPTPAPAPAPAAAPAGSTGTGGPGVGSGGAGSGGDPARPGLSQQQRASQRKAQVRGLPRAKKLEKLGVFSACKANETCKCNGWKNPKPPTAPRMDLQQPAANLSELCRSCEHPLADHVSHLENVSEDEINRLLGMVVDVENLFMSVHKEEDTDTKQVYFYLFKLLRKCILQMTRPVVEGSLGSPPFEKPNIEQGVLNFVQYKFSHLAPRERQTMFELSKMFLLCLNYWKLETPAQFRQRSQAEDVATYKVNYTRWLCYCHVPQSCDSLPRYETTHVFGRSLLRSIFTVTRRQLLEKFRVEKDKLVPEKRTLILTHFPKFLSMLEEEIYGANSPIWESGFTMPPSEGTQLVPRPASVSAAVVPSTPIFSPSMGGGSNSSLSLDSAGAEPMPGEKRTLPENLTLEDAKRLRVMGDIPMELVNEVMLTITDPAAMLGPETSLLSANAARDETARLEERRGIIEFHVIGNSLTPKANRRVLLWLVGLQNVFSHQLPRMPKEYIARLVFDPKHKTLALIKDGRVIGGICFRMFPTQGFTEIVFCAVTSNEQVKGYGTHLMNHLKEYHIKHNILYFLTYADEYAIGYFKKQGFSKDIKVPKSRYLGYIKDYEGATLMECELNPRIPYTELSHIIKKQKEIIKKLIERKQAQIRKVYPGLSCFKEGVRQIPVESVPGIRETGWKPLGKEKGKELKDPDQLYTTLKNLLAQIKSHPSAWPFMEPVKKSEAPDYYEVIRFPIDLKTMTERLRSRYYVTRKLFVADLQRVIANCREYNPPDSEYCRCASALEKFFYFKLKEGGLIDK
UniProt Q16594: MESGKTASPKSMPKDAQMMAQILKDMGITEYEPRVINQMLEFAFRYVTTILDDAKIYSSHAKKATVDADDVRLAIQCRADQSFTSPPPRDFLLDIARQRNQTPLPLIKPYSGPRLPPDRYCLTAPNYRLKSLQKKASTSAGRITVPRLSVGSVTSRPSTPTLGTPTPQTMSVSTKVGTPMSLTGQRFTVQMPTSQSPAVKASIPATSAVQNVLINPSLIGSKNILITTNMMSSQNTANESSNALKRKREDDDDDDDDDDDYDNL
UniProt P08047: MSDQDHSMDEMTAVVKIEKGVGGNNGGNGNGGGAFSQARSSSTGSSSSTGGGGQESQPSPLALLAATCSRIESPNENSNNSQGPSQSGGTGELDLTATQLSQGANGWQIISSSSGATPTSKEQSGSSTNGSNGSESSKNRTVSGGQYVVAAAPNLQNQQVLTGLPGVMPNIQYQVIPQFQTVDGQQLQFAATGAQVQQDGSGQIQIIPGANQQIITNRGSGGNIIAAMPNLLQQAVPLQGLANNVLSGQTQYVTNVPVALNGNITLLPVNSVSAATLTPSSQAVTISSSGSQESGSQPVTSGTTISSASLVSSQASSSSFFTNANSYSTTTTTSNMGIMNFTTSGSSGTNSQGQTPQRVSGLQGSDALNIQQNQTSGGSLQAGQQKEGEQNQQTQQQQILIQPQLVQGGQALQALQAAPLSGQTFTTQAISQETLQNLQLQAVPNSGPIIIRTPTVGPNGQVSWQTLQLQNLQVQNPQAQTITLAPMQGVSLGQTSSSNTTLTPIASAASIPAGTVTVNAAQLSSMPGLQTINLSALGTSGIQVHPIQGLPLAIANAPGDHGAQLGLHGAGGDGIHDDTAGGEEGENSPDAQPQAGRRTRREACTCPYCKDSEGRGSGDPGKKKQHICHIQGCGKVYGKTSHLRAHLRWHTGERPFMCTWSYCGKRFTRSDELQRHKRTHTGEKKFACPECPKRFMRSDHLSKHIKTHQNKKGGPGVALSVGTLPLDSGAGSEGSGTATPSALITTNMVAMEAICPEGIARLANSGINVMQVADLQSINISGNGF
UniProt O95602: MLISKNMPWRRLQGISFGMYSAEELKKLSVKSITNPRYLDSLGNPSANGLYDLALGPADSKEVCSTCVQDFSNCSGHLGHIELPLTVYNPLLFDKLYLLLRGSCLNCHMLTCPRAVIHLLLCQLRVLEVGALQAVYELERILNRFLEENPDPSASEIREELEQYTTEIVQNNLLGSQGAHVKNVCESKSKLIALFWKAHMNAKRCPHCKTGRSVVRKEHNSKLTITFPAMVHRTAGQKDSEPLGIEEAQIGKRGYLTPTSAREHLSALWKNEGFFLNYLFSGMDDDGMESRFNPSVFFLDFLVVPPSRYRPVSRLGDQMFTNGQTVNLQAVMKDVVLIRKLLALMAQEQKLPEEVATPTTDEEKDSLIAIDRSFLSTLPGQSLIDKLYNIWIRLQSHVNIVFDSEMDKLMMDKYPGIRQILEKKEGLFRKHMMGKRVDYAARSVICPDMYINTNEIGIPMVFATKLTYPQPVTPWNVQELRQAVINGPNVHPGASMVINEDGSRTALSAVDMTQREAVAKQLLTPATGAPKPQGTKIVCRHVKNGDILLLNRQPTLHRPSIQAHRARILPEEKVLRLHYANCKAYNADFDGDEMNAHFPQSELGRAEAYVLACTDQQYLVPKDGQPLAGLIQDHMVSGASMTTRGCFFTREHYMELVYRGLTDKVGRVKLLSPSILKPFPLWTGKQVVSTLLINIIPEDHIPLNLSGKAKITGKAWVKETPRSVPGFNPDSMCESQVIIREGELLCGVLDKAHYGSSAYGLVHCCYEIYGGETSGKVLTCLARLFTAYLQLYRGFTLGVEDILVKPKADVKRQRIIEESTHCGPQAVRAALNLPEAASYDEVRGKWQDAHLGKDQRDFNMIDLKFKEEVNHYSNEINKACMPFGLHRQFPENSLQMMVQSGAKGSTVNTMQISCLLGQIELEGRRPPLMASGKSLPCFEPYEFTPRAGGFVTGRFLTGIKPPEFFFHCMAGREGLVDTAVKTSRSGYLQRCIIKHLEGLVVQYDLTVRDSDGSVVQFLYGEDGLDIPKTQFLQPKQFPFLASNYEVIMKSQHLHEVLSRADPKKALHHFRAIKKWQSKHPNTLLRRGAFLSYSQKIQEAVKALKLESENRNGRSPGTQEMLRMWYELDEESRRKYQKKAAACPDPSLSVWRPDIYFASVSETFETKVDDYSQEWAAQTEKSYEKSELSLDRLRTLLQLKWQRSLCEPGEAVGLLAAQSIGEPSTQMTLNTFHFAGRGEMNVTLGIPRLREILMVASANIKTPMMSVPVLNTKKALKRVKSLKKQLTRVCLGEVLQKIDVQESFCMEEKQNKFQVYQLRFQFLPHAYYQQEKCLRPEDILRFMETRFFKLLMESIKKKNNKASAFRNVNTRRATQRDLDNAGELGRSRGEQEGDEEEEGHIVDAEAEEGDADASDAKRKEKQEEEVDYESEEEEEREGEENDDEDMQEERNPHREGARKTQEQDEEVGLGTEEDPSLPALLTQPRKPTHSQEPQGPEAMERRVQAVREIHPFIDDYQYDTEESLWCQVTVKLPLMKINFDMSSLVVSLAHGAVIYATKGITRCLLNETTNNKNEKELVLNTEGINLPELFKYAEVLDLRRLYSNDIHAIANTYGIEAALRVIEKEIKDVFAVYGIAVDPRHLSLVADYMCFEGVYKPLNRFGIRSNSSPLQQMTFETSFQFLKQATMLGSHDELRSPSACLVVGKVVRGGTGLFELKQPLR
UniProt O75486: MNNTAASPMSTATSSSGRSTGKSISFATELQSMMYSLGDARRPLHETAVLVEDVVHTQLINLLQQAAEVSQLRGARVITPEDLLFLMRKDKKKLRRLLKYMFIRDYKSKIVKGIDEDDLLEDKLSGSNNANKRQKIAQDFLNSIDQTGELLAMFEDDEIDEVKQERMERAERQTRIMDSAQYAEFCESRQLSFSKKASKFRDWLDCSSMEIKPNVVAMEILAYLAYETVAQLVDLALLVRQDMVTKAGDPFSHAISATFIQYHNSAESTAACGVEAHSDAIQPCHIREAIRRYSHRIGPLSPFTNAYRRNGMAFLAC
UniProt O75528: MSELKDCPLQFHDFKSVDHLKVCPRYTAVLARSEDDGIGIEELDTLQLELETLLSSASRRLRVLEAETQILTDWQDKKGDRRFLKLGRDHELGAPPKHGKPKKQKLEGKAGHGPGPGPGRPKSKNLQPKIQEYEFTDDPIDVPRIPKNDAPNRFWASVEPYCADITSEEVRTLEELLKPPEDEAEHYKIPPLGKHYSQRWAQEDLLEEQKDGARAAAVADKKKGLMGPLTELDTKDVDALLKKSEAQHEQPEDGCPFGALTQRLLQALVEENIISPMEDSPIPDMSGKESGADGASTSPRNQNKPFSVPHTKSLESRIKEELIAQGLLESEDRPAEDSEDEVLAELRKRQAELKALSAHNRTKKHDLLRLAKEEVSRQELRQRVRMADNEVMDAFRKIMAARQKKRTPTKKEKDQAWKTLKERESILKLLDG

What was measured:
Test in all cases: affinity purification with mass spectrometry; co-IP/MS in HEK293T cells expressing SGF29-WT or SGF29-R207P with flag and EGFP dual tags; Flag-EGFP as control
[1] = target: Flag-EGFP-SGF29-R207P (human) (UniProt Q96ES7)
[2] = target: Flag-EGFP-SGF29-WT (human) (UniProt Q96ES7)
[3] = target: Flag-EGFP-SGF29-R207P (human) (UniProt Q96ES7); remark: listed apart in the source
[4] = target: Flag-EGFP-SGF29-WT (human) (UniProt Q96ES7); remark: listed apart in the source

| Molecule | binding [1] | binding [2] | binding [3] | binding [4] |
| --- | --- | --- | --- | --- |
| KAT2B (from UniProt Q92831 1-832) | binds | binds |  |  |
| KAT2A (GCN5) (from UniProt Q92830 1-837) | binds | binds |  |  |
| TAF9 (from UniProt Q16594 1-264) | no binding | binds |  |  |
| Transcription factor SP1 (from UniProt P08047 1-785) | no binding | binds |  |  |
| POLR1A, a subunit of RNA polymerase I (from UniProt O95602 1-1720) |  | binds |  |  |
| SUPT3H (from UniProt O75486 1-317) | no binding | binds |  |  |
| ADA3 (from UniProt O75528 1-432) | binds | binds |  |  |
| mediator of RNA polymerase II transcription subunit 4 (MED4) (protein, UniProt Q9NPJ6 1-270) MAASSSGEKEKERLGGGLGVAGGNSTRERLLSALEDLEVLSRELIEMLAISRNQKLLQAGEENQVLELLIHRDGEFQELMKLALNQGKIHHEMQVLEKEVEKRDSDIQQLQKQLKEAEQILATAVYQAKEKLKSIEKARKGAISSEEIIKYAHRISASNAVCAPLTWVPGDPRRPYPTDLEMRSGLLGQMNNPSTNGVNGHLPGDALAAGRLPDVLAPQYPWQSNDMSMNMLPPNHSSDFLLEPPGHNKENEDDVEIMSTDSSSSSSESD |  |  | no binding | binds |
| GTF2H2 (protein, UniProt Q13888 1-395) MDEEPERTKRWEGGYERTWEILKEDESGSLKATIEDILFKAKRKRVFEHHGQVRLGMMRHLYVVVDGSRTMEDQDLKPNRLTCTLKLLEYFVEEYFDQNPISQIGIIVTKSKRAEKLTELSGNPRKHITSLKKAVDMTCHGEPSLYNSLSIAMQTLKHMPGHTSREVLIIFSSLTTCDPSNIYDLIKTLKAAKIRVSVIGLSAEVRVCTVLARETGGTYHVILDESHYKELLTHHVSPPPASSSSECSLIRMGFPQHTIASLSDQDAKPSFSMAHLDGNTEPGLTLGGYFCPQCRAKYCELPVECKICGLTLVSAPHLARSYHHLFPLDAFQEIPLEEYNGERFCYGCQGELKDQHVYVCAVCQNVFCVDCDVFVHDSLHCCPGCIHKIPAPSGV |  |  | no binding | binds |
| GTF2H3 (protein, UniProt Q13889 1-308) MVSDEDELNLLVIVVDANPIWWGKQALKESQFTLSKCIDAVMVLGNSHLFMNRSNKLAVIASHIQESRFLYPGKNGRLGDFFGDPGNPPEFNPSGSKDGKYELLTSANEVIVEEIKDLMTKSDIKGQHTETLLAGSLAKALCYIHRMNKEVKDNQEMKSRILVIKAAEDSALQYMNFMNVIFAAQKQNILIDACVLDSDSGLLQQACDITGGLYLKVPQMPSLLQYLLWVFLPDQDQRSQLILPPPVHVDYRAACFCHRNLIEIGYVCSVCLSIFCNFSPICTTCETAFKISLPPVLKAKKKKLKVSA |  |  | no binding | binds |
| GTF2H4 (protein, UniProt Q92759 1-462) MESTPSRGLNRVHLQCRNLQEFLGGLSPGVLDRLYGHPATCLAVFRELPSLAKNWVMRMLFLEQPLPQAAVALWVKKEFSKAQEESTGLLSGLRIWHTQLLPGGLQGLILNPIFRQNLRIALLGGGKAWSDDTSQLGPDKHARDVPSLDKYAEERWEVVLHFMVGSPSAAVSQDLAQLLSQAGLMKSTEPGEPPCITSAGFQFLLLDTPAQLWYFMLQYLQTAQSRGMDLVEILSFLFQLSFSTLGKDYSVEGMSDSLLNFLQHLREFGLVFQRKRKSRRYYPTRLAINLSSGVSGAGGTVHQPGFIVVETNYRLYAYTESELQIALIALFSEMLYRFPNMVVAQVTRESVQQAIASGITAQQIIHFLRTRAHPVMLKQTPVLPPTITDQIRLWELERDRLRFTEGVLYNQFLSQVDFELLLAHARELGVLVFENSAKRLMVVTPAGHSDVKRFWKRQKHSS |  |  | no binding | binds |
| TCOF1, also known as treacle (protein, UniProt Q13428 1-1488) MAEARKRRELLPLIYHHLLRAGYVRAAREVKEQSGQKCFLAQPVTLLDIYTHWQQTSELGRKRKAEEDAALQAKKTRVSDPISTSESSEEEEEAEAETAKATPRLASTNSSVLGADLPSSMKEKAKAETEKAGKTGNSMPHPATGKTVANLLSGKSPRKSAEPSANTTLVSETEEEGSVPAFGAAAKPGMVSAGQADSSSEDTSSSSDETDVEGKPSVKPAQVKASSVSTKESPARKAAPAPGKVGDVTPQVKGGALPPAKRAKKPEEESESSEEGSESEEEAPAGTRSQVKASEKILQVRAASAPAKGTPGKGATPAPPGKAGAVASQTKAGKPEEDSESSSEESSDSEEETPAAKALLQAKASGKTSQVGAASAPAKESPRKGAAPAPPGKTGPAVAKAQAGKREEDSQSSSEESDSEEEAPAQAKPSGKAPQVRAASAPAKESPRKGAAPAPPRKTGPAAAQVQVGKQEEDSRSSSEESDSDREALAAMNAAQVKPLGKSPQVKPASTMGMGPLGKGAGPVPPGKVGPATPSAQVGKWEEDSESSSEESSDSSDGEVPTAVAPAQEKSLGNILQAKPTSSPAKGPPQKAGPVAVQVKAEKPMDNSESSEESSDSADSEEAPAAMTAAQAKPALKIPQTKACPKKTNTTASAKVAPVRVGTQAPRKAGTATSPAGSSPAVAGGTQRPAEDSSSSEESDSEEEKTGLAVTVGQAKSVGKGLQVKAASVPVKGSLGQGTAPVLPGKTGPTVTQVKAEKQEDSESSEEESDSEEAAASPAQVKTSVKKTQAKANPAAARAPSAKGTISAPGKVVTAAAQAKQRSPSKVKPPVRNPQNSTVLARGPASVPSVGKAVATAAQAQTGPEEDSGSSEEESDSEEEAETLAQVKPSGKTHQIRAALAPAKESPRKGAAPTPPGKTGPSAAQAGKQDDSGSSSEESDSDGEAPAAVTSAQVIKPPLIFVDPNRSPAGPAATPAQAQAASTPRKARASESTARSSSSESEDEDVIPATQCLTPGIRTNVVTMPTAHPRIAPKASMAGASSSKESSRISDGKKQEGPATQVSKKNPASLPLTQAALKVLAQKASEAQPPVARTQPSSGVDSAVGTLPATSPQSTSVQAKGTNKLRKPKLPEVQQATKAPESSDDSEDSSDSSSGSEEDGEGPQGAKSAHTLGPTPSRTETLVEETAAESSEDDVVAPSQSLLSGYMTPGLTPANSQASKATPKLDSSPSVSSTLAAKDDPDGKQEAKPQQAAGMLSPKTGGKEAASGTTPQKSRKPKKGAGNPQASTLALQSNITQCLLGQPWPLNEAQVQASVVKVLTELLEQERKKVVDTTKESSRKGWESRKRKLSGDQPAARTPRSKKKKKLGAGEGGEASVSPEKTSTTSKGKAKRDKASGDVKEKKGKGSLGSQGAKDEPEEELQKGMGTVEGGDQSNPKSKKEKKKSDKRKKDKEKKEKKKKAKKASTKDSESPSQKKKKKKKKTAEQTV |  |  |  | binds |
| ADA2A (protein, UniProt O75478 1-443) MDRLGPFSNDPSDKPPCRGCSSYLMEPYIKCAECGPPPFFLCLQCFTRGFEYKKHQSDHTYEIMTSDFPVLDPSWTAQEEMALLEAVMDCGFGNWQDVANQMCTKTKEECEKHYMKHFINNPLFASTLLNLKQAEEAKTADTAIPFHSTDDPPRPTFDSLLSRDMAGYMPARADFIEEFDNYAEWDLRDIDFVEDDSDILHALKMAVVDIYHSRLKERQRRKKIIRDHGLINLRKFQLMERRYPKEVQDLYETMRRFARIVGPVEHDKFIESHALEFELRREIKRLQEYRTAGITNFCSARTYDHLKKTREEERLKRTMLSEVLQYIQDSSACQQWLRRQADIDSGLSPSIPMASNSGRRSAPPLNLTGLPGTEKLNEKEKELCQMVRLVPGAYLEYKSALLNECNKQGGLRLAQARALIKIDVNKTRKIYDFLIREGYITKG |  |  | binds | binds |

Read-outs that look alike come from different tables or passages of the source. No constants are given. Whether binding was seen depends on the method and setting. In cells and extracts the contact can be indirect. Here binding means that the protein was enriched with, or labelled near, the bait; the list need not be complete. For part of these data: No binding means not detected with the bait.
